Test results as given in publication doi:10.1101/2024.11.11.622870.
Positions count from the first letter of the chain named. No constants are given. Whether binding was seen depends on the method and setting. Binding seen in cells or lysates may run through a third protein. Here binding means that the protein was enriched with, or labelled near, the bait; the list need not be complete. For part of these data: No binding means not detected with the bait. Where a sequence is shown, tags or fusion partners need not be part of it.

Amino acid sequences for entries named in this document (tags omitted). A change or cut given only in a name is not applied to a line headed by its entry.
UniProt P05556: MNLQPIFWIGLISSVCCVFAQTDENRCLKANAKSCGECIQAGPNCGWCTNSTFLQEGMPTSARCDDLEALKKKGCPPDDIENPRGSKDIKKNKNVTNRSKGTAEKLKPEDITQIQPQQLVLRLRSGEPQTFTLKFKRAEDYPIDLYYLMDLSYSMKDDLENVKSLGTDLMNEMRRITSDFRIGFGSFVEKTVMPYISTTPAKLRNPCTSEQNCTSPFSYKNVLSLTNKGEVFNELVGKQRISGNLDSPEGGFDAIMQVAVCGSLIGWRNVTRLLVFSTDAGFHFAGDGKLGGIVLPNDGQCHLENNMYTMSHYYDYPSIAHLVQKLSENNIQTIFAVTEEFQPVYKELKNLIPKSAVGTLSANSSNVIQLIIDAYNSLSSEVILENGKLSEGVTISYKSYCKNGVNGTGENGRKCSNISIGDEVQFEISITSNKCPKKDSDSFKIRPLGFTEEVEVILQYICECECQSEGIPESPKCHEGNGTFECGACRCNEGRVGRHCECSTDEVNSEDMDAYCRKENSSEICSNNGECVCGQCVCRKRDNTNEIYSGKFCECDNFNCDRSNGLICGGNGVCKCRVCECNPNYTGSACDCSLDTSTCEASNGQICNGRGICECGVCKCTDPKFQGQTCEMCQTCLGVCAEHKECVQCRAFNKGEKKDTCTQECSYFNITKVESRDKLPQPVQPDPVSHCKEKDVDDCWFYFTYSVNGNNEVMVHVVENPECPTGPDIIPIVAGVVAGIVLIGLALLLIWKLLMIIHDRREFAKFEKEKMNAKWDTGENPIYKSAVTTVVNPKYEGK

How the values were obtained:
mycBirA*-Rab25 DN (T26N) = molecular target: T1, mycBirA*-Rab25 DN (T26N) (UniProt P57735); assay: proximity labelling
T1 sequence: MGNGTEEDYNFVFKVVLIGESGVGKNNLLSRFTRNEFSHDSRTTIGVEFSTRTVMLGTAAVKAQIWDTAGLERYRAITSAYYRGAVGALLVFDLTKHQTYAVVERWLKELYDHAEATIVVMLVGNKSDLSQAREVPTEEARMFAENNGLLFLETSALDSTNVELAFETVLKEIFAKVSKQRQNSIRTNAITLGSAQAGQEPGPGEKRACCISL

mycBirA*-Rab25 wt = molecular target: T2, mycBirA*-Rab25 wt (UniProt P57735); assay: proximity labelling
T2 sequence: T1 sequence with N26T

| Substance | binding (mycBirA*-Rab25 DN (T26N)) | binding (mycBirA*-Rab25 wt) |
| --- | --- | --- |
| FMNL1 (from UniProt O95466-2) | no binding | binds |
| integrin β1 (from UniProt P05556 21-798) (receptor) |  | binds |
